According to EP0337598A2, “Use of porphyrins and metalloporphyrins in the treatment of diseases caused by Human Immunodeficiency Viruses” (GEORGIA STATE UNIVERSITY FOUNDATION, INC., priority 1988, dated 1989):
At least one compound was matched to its structure with a doubt left.

Test system: LAV strain of HIV
Assay: Assay of anti-HIV activity: HIV production in infected MT-4 cells
Format: cell-based
Details: Concentration 10µg/ml, m.o.i. 0.01, in the dark, Control 10⁶

Structure (SMILES): Cc1cc2nc3ccc(N(C)C)cc3[s+]c2cc1N.[Cl-] [TB, Toluidine Blue, reference compound]
- Amount of HIV production: 10⁶ TCID₅₀/ml
